Our source for the binding values is article PMC4011676.

Amino acid sequences for entries named in this document (tags omitted). A change or cut given only in a name is not applied to a line headed by its entry.
UniProt Q13315: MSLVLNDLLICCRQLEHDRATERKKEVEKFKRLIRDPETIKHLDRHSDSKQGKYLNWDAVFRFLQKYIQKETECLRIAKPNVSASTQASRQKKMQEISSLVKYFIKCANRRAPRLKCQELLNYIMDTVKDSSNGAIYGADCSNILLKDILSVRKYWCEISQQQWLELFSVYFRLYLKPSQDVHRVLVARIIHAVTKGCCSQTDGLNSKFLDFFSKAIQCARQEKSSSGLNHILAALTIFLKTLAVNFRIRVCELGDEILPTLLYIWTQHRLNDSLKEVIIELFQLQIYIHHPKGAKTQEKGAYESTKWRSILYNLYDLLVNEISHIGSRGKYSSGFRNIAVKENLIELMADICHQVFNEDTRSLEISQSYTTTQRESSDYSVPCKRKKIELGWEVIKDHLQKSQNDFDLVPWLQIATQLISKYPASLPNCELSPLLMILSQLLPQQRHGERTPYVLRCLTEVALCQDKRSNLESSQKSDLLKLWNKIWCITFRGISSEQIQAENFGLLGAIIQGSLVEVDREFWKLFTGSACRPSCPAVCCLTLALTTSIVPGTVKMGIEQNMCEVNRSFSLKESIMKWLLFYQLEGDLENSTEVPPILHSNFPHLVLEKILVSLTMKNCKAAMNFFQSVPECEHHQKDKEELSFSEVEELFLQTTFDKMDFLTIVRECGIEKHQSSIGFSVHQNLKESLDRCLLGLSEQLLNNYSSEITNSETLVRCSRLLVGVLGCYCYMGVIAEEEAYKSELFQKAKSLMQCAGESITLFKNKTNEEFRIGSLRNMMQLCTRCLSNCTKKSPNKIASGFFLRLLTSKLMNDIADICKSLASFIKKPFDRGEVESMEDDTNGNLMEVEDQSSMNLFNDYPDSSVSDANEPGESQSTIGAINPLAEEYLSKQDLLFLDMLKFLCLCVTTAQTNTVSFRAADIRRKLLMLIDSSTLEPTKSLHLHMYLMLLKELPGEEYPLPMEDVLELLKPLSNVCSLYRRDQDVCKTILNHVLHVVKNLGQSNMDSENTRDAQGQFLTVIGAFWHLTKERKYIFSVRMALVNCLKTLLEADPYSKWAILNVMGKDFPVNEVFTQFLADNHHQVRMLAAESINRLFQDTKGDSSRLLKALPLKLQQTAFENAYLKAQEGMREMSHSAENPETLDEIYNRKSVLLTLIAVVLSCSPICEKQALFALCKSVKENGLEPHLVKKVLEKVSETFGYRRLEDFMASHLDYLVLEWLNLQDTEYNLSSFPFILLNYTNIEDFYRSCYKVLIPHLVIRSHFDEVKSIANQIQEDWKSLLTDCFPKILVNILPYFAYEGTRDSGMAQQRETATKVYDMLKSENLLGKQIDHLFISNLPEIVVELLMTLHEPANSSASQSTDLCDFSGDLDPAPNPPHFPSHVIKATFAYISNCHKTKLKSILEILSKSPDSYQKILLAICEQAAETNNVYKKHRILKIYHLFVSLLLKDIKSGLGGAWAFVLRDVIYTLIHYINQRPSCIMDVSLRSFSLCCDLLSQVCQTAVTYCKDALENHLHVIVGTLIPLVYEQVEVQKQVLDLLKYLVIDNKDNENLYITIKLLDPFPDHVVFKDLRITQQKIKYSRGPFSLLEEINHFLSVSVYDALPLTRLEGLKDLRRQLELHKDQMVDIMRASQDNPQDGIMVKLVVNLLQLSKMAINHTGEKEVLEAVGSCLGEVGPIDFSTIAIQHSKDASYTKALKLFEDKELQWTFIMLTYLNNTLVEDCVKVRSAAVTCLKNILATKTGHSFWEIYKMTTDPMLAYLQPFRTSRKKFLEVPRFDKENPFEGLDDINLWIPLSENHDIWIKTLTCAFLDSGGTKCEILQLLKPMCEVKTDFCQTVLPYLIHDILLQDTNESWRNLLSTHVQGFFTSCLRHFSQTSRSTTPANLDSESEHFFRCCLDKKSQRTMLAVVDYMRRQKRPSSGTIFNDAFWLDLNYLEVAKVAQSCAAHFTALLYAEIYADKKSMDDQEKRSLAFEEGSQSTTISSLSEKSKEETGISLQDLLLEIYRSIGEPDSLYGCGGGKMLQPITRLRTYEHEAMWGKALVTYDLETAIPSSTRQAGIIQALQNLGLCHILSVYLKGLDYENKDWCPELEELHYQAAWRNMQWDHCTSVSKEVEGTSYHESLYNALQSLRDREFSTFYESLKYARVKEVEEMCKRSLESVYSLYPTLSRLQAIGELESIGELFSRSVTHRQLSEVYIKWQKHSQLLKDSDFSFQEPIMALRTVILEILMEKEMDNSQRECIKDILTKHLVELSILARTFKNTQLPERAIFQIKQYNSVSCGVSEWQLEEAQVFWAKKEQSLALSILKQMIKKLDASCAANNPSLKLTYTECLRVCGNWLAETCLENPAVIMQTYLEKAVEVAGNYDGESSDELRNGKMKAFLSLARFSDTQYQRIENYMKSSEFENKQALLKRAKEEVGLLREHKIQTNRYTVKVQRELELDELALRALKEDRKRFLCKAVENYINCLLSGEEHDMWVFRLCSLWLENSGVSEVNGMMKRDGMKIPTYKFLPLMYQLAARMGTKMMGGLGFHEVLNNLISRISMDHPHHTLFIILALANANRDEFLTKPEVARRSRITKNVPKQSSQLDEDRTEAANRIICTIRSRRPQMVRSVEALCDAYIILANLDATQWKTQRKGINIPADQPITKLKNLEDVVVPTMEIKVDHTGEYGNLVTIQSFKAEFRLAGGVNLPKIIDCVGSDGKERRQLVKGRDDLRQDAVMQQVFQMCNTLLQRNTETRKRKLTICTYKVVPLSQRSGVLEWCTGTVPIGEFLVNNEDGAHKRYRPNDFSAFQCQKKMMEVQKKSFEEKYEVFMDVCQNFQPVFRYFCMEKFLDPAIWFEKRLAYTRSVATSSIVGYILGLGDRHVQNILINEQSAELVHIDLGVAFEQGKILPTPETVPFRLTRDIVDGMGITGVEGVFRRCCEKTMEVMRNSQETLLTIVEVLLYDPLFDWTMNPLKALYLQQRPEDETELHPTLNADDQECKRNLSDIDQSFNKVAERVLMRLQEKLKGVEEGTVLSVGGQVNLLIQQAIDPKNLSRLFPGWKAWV
UniProt O60264: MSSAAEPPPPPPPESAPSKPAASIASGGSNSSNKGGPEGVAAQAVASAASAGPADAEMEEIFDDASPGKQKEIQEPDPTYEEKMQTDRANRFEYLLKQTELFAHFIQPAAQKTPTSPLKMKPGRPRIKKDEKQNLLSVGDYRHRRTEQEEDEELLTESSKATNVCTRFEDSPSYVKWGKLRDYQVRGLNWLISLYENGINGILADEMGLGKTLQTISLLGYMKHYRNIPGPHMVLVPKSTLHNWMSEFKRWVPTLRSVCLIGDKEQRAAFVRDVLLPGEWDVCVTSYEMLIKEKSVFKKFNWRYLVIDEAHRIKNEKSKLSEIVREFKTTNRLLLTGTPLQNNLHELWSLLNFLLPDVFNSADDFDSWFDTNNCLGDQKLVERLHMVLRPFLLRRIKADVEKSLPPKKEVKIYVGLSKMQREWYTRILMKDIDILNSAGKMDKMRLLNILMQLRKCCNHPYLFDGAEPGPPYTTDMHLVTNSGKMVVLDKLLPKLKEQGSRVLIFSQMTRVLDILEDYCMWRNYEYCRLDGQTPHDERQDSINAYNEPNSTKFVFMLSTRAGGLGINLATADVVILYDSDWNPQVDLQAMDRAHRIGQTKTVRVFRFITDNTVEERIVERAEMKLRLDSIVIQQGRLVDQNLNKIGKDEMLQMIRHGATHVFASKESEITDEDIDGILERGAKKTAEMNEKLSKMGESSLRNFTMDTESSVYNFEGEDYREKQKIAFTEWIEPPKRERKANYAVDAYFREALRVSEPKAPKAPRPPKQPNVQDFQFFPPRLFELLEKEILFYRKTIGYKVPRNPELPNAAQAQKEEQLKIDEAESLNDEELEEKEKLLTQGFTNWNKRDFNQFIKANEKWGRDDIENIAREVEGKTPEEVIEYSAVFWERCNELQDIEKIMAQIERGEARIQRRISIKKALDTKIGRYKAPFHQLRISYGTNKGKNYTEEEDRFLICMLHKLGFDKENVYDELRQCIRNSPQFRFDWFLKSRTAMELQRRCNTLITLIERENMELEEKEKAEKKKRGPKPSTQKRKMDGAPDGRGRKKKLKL
UniProt Q9NRL2: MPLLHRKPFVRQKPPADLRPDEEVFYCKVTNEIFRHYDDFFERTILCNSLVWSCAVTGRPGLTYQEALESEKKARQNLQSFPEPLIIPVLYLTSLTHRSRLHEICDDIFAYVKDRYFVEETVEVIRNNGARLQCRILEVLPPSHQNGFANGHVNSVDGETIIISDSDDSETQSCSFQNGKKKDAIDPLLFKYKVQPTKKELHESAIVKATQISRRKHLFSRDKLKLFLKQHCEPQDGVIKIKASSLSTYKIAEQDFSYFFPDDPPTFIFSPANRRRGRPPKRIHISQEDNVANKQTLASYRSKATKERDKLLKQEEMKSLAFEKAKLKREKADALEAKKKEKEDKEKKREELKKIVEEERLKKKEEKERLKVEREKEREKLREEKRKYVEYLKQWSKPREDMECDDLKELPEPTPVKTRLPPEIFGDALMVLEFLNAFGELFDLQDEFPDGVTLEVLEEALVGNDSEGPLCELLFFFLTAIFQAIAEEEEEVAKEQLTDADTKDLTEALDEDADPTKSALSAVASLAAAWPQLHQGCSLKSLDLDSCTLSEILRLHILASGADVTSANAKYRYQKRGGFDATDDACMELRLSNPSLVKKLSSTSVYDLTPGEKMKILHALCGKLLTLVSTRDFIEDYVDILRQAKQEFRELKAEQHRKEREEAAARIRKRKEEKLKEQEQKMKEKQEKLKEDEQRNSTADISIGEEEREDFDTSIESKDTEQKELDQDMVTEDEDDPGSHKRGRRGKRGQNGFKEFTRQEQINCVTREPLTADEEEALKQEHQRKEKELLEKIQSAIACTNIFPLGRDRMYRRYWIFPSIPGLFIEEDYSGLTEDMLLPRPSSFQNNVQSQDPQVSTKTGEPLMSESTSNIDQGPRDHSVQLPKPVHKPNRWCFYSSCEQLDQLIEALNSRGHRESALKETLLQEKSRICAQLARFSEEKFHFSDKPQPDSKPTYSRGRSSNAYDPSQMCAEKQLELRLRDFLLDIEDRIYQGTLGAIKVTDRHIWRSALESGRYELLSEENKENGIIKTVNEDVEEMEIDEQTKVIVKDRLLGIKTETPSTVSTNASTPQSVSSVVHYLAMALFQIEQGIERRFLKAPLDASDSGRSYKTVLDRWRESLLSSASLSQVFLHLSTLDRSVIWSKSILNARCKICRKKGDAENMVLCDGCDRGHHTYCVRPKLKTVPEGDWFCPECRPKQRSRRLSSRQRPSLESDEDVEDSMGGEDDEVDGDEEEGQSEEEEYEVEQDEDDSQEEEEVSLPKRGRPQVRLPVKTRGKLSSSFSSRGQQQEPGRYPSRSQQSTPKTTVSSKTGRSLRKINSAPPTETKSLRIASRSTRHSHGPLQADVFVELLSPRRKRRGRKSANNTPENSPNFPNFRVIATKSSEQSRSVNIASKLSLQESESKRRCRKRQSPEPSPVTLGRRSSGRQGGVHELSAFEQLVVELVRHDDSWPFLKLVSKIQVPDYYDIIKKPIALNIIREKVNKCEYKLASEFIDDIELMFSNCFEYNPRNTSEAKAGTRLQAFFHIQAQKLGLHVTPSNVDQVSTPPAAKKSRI
UniProt P83916: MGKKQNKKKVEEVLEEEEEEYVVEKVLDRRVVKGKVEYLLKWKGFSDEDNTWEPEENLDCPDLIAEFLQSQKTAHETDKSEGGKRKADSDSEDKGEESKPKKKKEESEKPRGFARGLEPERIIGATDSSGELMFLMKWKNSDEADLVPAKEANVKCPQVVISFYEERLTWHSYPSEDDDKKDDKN

These are yes or no findings as the source states them, for the method shown. In cells and extracts the contact can be indirect. Some entries that bind do so weakly or less than the wild type.

Assay [1] has as its target ATM (human Ataxia telangiectasia, mutated) (human) (UniProt Q13315). Description: co-IP; anti-ATM immunoprecipitation from soluble and chromatin fractions of U2OS cells cross-linked with 1% PFA (10 min, room temperature) before harvesting; benzonase; 10 Gy IR.
The target in assay [2] is T1, RSF1 (human Remodelling and Spacing Factor 1) (human) (UniProt Q96T23).
T1 sequence: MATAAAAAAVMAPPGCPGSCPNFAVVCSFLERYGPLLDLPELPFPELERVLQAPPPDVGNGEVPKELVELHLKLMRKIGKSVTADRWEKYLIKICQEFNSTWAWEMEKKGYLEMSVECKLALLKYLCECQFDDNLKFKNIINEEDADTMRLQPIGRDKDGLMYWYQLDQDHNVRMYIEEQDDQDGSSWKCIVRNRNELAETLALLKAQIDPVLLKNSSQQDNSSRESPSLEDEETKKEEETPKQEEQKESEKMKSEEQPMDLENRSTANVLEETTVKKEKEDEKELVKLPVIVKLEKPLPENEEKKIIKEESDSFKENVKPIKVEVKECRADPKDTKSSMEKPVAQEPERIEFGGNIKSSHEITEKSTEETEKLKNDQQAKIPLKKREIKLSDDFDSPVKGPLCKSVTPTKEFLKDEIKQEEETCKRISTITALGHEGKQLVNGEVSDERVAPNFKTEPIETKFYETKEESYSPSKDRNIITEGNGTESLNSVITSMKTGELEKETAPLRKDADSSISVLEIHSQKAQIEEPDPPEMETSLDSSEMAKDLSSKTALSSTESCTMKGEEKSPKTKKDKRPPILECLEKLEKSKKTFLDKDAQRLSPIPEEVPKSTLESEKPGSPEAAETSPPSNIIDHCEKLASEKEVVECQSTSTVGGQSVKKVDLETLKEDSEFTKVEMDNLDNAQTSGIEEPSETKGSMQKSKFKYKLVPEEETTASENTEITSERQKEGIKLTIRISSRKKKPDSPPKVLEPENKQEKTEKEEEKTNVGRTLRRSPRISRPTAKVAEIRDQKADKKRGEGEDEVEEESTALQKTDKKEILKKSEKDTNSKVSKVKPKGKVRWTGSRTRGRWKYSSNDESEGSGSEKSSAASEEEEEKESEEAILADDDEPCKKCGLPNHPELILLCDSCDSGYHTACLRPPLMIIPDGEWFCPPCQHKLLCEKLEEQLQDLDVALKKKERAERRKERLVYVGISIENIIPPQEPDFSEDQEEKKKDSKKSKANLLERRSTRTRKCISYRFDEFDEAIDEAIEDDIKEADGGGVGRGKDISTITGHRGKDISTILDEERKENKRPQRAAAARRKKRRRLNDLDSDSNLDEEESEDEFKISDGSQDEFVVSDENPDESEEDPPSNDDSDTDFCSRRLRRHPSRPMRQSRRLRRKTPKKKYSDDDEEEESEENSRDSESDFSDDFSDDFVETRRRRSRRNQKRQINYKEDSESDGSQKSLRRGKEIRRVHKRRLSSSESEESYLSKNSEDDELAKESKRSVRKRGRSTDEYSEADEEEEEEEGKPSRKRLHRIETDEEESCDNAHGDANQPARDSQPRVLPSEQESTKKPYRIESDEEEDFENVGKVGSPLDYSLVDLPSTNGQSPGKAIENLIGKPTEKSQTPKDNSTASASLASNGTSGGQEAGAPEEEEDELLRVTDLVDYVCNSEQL
Kind of assay: co-IP; anti-RSF1 immunoprecipitation from U2OS extracts, benzonase; mock or 4 Gy IR, 1 h recovery.

The target in assay [3] is ATM (human Ataxia telangiectasia, mutated) (human) (UniProt Q13315). Description: co-IP; anti-ATM immunoprecipitation from U2OS extracts, benzonase in the lysis buffer, 10 Gy IR, harvested 1 h after irradiation.
The target is the same in assay [4]. Description: co-IP; anti-ATM immunoprecipitation from U2OS extracts, benzonase, 10 Gy IR with the ATM inhibitor KU55933 added an hour before irradiation.
Assay [5] shares this target. Description: co-IP; anti-ATM immunoprecipitation from U2OS extracts, benzonase, mock-treated cells (no IR).
For assay [6] the target is unchanged. Kind of assay: co-IP; anti-ATM immunoprecipitation from HEK293 extracts, chromatin solubilised by benzonase or by 450 mM NaCl; mock, 10 Gy IR, or IR with KU55933.

As for “CENPS/MHF1 (human, endogenous) (from UniProt Q8N2Z9-1 1-138)”, the binding result in assay [1] and in assay [2] was “binds” in each case.

With “SNF2H (SMARCA5), catalytic subunit of the RSF complex (from UniProt O60264 1-1052)”, the binding entry in assay [3] is given as “binds”; in assay [4] it was “no binding (condition: with the ATM inhibitor KU55933)”; in assay [5] it was “no binding (condition: mock-treated cells (no IR))”; in assay [6], “binds”.

Regarding “BAZ1A (human) (from UniProt Q9NRL2 1-1556)”, the binding entry in assay [3] and in assay [6] was “binds” each time.

Consider “CENPA (human) (from UniProt P49450 1-140)”, for which the binding entry in assay [2] is listed as “binds”.

In the case of HP1β (from UniProt P83916 1-185), the binding entry in assay [3] was “no binding”.

B1: BAZ1B (human) (protein, UniProt Q9UIG0 1-1483)
chain: MAPLLGRKPFPLVKPLPGEEPLFTIPHTQEAFRTREEYEARLERYSERIWTCKSTGSSQLTHKEAWEEEQEVAELLKEEFPAWYEKLVLEMVHHNTASLEKLVDTAWLEIMTKYAVGEECDFEVGKEKMLKVKIVKIHPLEKVDEEATEKKSDGACDSPSSDKENSSQIAQDHQKKETVVKEDEGRRESINDRARRSPRKLPTSLKKGERKWAPPKFLPHKYDVKLQNEDKIISNVPADSLIRTERPPNKEIVRYFIRHNALRAGTGENAPWVVEDELVKKYSLPSKFSDFLLDPYKYMTLNPSTKRKNTGSPDRKPSKKSKTDNSSLSSPLNPKLWCHVHLKKSLSGSPLKVKNSKNSKSPEEHLEEMMKMMSPNKLHTNFHIPKKGPPAKKPGKHSDKPLKAKGRSKGILNGQKSTGNSKSPKKGLKTPKTKMKQMTLLDMAKGTQKMTRAPRNSGGTPRTSSKPHKHLPPAALHLIAYYKENKDREDKRSALSCVISKTARLLSSEDRARLPEELRSLVQKRYELLEHKKRWASMSEEQRKEYLKKKREELKKKLKEKAKERREKEMLERLEKQKRYEDQELTGKNLPAFRLVDTPEGLPNTLFGDVAMVVEFLSCYSGLLLPDAQYPITAVSLMEALSADKGGFLYLNRVLVILLQTLLQDEIAEDYGELGMKLSEIPLTLHSVSELVRLCLRRSDVQEESEGSDTDDNKDSAAFEDNEVQDEFLEKLETSEFFELTSEEKLQILTALCHRILMTYSVQDHMETRQQMSAELWKERLAVLKEENDKKRAEKQKRKEMEAKNKENGKVENGLGKTDRKKEIVKFEPQVDTEAEDMISAVKSRRLLAIQAKKEREIQEREMKVKLERQAEEERIRKHKAAAEKAFQEGIAKAKLVMRRTPIGTDRNHNRYWLFSDEVPGLFIEKGWVHDSIDYRFNHHCKDHTVSGDEDYCPRSKKANLGKNASMNTQHGTATEVAVETTTPKQGQNLWFLCDSQKELDELLNCLHPQGIRESQLKERLEKRYQDIIHSIHLARKPNLGLKSCDGNQELLNFLRSDLIEVATRLQKGGLGYVEETSEFEARVISLEKLKDFGECVIALQASVIKKFLQGFMAPKQKRRKLQSEDSAKTEEVDEEKKMVEEAKVASALEKWKTAIREAQTFSRMHVLLGMLDACIKWDMSAENARCKVCRKKGEDDKLILCDECNKAFHLFCLRPALYEVPDGEWQCPACQPATARRNSRGRNYTEESASEDSEDDESDEEEEEEEEEEEEEDYEVAGLRLRPRKTIRGKHSVIPPAARSGRRPGKKPHSTRRSQPKAPPVDDAEVDELVLQTKRSSRRQSLELQKCEEILHKIVKYRFSWPFREPVTRDEAEDYYDVITHPMDFQTVQNKCSCGSYRSVQEFLTDMKQVFTNAEVYNCRGSHVLSCMVKTEQCLVALLHKHLPGHPYVRRKRKKFPDRLAEDEGDSEPEAVGQSRGRRQKK
B1: the binding entry in assay [3] and in assay [6] was “binds” in each case.

B2: RSF1 (human Remodelling and Spacing Factor 1) (protein, UniProt Q96T23-1 1-1441)
chain: T1 sequence
Regarding B2, the binding result is on record as “binds” in assay [1]; “binds” in assay [3]; “no binding (condition: with the ATM inhibitor KU55933)” in assay [4]; “no binding (condition: mock-treated cells (no IR))” in assay [5]; “binds” in assay [6].
